These are yes or no findings as the source states them, for the method shown. In cells and extracts the contact can be indirect. Here binding means that the protein was enriched with, or labelled near, the bait; the list need not be complete.
B1: Coagulation factor XIII A chain (enzyme, UniProt Q8BH61 2-732, looked up)
chain: SDTPASTFGGRRAVPPNNSNAAEVDLPTEELQGLVPRGVNLKDYLNVTAVHLFKERWDSNKIDHHTDKYDNNKLIVRRGQTFYIQIDFNRPYDPRKDLFRVEYVIGRYPQENKGTYIPVPVVKELQSGKWGAKVIMNEDRSVRLSVQSSPECIVGKFRMYVAVWTPYGILRTRRDPETDTYILFNPWCEEDAVYLDDEKEREEYVLNDIGVIFYGDFKDIKSRSWSYGQFEDGILDTCLYVMDKAEMDLSGRGNPIKVSRVGSAMVNAKDDEGVLVGSWDNVYAYGIPPSAWTGSVDILLEYRSSETPVRYGQCWVFAGVFNTFLRCLGIPARVITNYFSAHDNDANLQMDIFLEEDGNVSSKLTKDSVWNYHCWNEAWMTRPDLPVGFGGWQAVDSTPQENSDGMYRCGPASVQAVKHGHVCFQFDAPFVFAEVNSDLVYITAKQDGTHVVEAVDATHIGKLIVTKQIGGDGMQDITDTYKFQEGQEEERLALETALMYGAKKTLNTEGVVKSRSDVTMNFDVENAVLGKDFKVTITFQNNSSNLYTILAYLSGNITFYTGVSKKEFKKESFEETLDPFSSKKKEVLVRAGEYMSHLLEQGFLHFFVTARINESRDVLAKQKSIILTIPKITIKVRGAAMVGSDMVVTVEFTNPLKETLQNVWIHLDGPGVMRPKRKVFREIRPNTTVQWEEVCRPWVSGHRKLIASMTSDSLRHVYGELDLQIQRRPTM
B2: EGF-like repeat and discoidin I-like domain-containing protein 3 (protein, UniProt O35474 24-480, looked up)
chain: DICNPNPCENGGICLSGLADDSFSCECPEGFAGPNCSSVVEVASDEEKPTSAGPCIPNPCHNGGTCEISEAYRGDTFIGYVCKCPRGFNGIHCQHNINECEAEPCRNGGICTDLVANYSCECPGEFMGRNCQYKCSGPLGIEGGIISNQQITASSTHRALFGLQKWYPYYARLNKKGLINAWTAAENDRWPWIQINLQRKMRVTGVITQGAKRIGSPEYIKSYKIAYSNDGKTWAMYKVKGTNEEMVFRGNVDNNTPYANSFTPPIKAQYVRLYPQICRRHCTLRMELLGCELSGCSEPLGMKSGHIQDYQITASSVFRTLNMDMFTWEPRKARLDKQGKVNAWTSGHNDQSQWLQVDLLVPTKVTGIITQGAKDFGHVQFVGSYKLAYSNDGEHWMVHQDEKQRKDKVFQGNFDNDTHRKNVIDPPIYARFIRILPWSWYGRITLRSELLGCAEEE
B3: Progranulin (protein, UniProt P28798 18-589, looked up)
chain: TQCPDGQFCPVACCLDQGGANYSCCNPLLDTWPRITSHHLDGSCQTHGHCPAGYSCLLTVSGTSSCCPFSKGVSCGDGYHCCPQGFHCSADGKSCFQMSDNPLGAVQCPGSQFECPDSATCCIMVDGSWGCCPMPQASCCEDRVHCCPHGASCDLVHTRCVSPTGTHTLLKKFPAQKTNRAVSLPFSVVCPDAKTQCPDDSTCCELPTGKYGCCPMPNAICCSDHLHCCPQDTVCDLIQSKCLSKNYTTDLLTKLPGYPVKEVKCDMEVSCPEGYTCCRLNTGAWGCCPFAKAVCCEDHIHCCPAGFQCHTEKGTCEMGILQVPWMKKVIAPLRLPDPQILKSDTPCDDFTRCPTNNTCCKLNSGDWGCCPIPEAVCCSDNQHCCPQGFTCLAQGYCQKGDTMVAGLEKIPARQTTPLQIGDIGCDQHTSCPVGQTCCPSLKGSWACCQLPHAVCCEDRQHCCPAGYTCNVKARTCEKDVDFIQPPVLLTLGPKVGNVECGEGHFCHDNQTCCKDSAGVWACCPYLKGVCCRDGRHCCPGGFHCSARGTKCLRKKIPRWDMFLRDPVPRPLL
B4: Cochlin (protein, UniProt Q62507 27-552, looked up)
chain: EGAVPIPVTCFTRGLDIRKEKADVLCPGGCSLEEFSVFGNIVYASVSSICGAAVHRGVIGTSGGPVRVYSLPGRENYSSVDANGIQSQMLSRWSASFAVTKGKSSTQEATGRAVSTAHPPSGKRLKKTPEKKTGNKDCKADIAFLIDGSFNIGQRRFNLQKNFVGKVALMLGIGTEGPHVGLVQASEHPKIEFYLKNFTSAKDVLFAIKEVGFRGGNSNTGKALKHTAQKFFTADTGVRKGIPKVVVVFIDGWPSDDIEEAGIVAREFGVNVFIVSVAKPIPEELGMVQDVAFVDKAVCRNNGFFSYHMPNWFGTTKYVKPLVQKLCTHEQMMCSKTCYNSVNIAFLIDGSSSVGDSNFRLMLEFVSNIAKTFEISDIGAKIAAVQFTYDQRTEFSFTDYNTKENVLAVLANIRYMSGGTATGDAIAFTVRNVFGPIRDSPNKNFLVIVTDGQSYDDVRGPAAAAHDAGITIFSVGVAWAPLDDLRDMASKPKESHAFFTREFTGLEPIVSDVIRGICRDFLESQQ
B5: CCN family member 1 (protein, UniProt P18406 25-379, looked up)
chain: TCPAACHCPLEAPKCAPGVGLVRDGCGCCKVCAKQLNEDCSKTQPCDHTKGLECNFGASSTALKGICRAQSEGRPCEYNSRIYQNGESFQPNCKHQCTCIDGAVGCIPLCPQELSLPNLGCPNPRLVKVSGQCCEEWVCDEDSIKDSLDDQDDLLGLDASEVELTRNNELIAIGKGSSLKRLPVFGTEPRVLFNPLHAHGQKCIVQTTSWSQCSKSCGTGISTRVTNDNPECRLVKETRICEVRPCGQPVYSSLKKGKKCSKTKKSPEPVRFTYAGCSSVKKYRPKYCGSCVDGRCCTPLQTRTVKMRFRCEDGEMFSKNVMMIQSCKCNYNCPHPNEASFRLYSLFNDIHKFRD
B6: Annexin A4 (protein, UniProt P97429 1-319, looked up)
chain: MEAKGGTVKAASGFNATEDAQTLRKAMKGLGTDEDAIIGILAYRNTAQRQEIRSAYKSTIGRDLIEDLKSELSSNFEQVILGLMTPTVLYDVQELRRAMKGAGTDEGCLIEILASRTPEEIRRINQTYQQQYGRSLEEDICSDTSFMFQRVLVSLSAAGRDEGNYLDDALMKQDAQELYEAGEKRWGTDEVKFLSILCSRNRNHLLHVFDEYKRISQKDIEQSIKSETSGSFEDALLAIVKCMRSKPSYFAERLYKSMKGLGTDDNTLIRVMVSRAEIDMLDIRASFKRLYGKSLYSFIKGDTSGDYRKVLLVLCGGDD
B7: Annexin A6 (protein, UniProt P14824 2-673, looked up)
chain: AKIAQGAMYRGSVHDFPEFDANQDAEALYTAMKGFGSDKESILELITSRSNKQRQEICQNYKSLYGKDLIEDLKYELTGKFERLIVNLMRPLAYCDAKEIKDAISGVGTDEKCLIEILASRTNEQMHQLVAAYKDAYERDLESDIIGDTSGHFQKMLVVLLQGTRENDDVVSEDLVQQDVQDLYEAGELKWGTDEAQFIYILGNRSKQHLRLVFDEYLKTTGKPIEASIRGELSGDFEKLMLAVVKCIRSTPEYFAERLFKAMKGLGTRDNTLIRIMVSRSELDMLDIREIFRTKYEKSLYSMIKNDTSGEYKKALLKLCGGDDDAAGQFFPEAAQVAYQMWELSAVSRVELKGTVCAANDFNPDADAKALRKAMKGIGTDEATIIDIVTHRSNAQRQQIRQTFKSHFGRDLMADLKSEISGDLARLILGLMMPPAHYDAKQLKKAMEGAGTDEKTLIEILATRTNAEIRAINEAYKEDYHKSLEDALSSDTSGHFRRILISLATGNREEGGENRDQAQEDAQVAAEILEIADTPSGDKTSLETRFMTVLCTRSYPHLRRVFQEFIKKTNYDIEHVIKKEMSGDVKDAFVAIVQSVKNKPLFFADKLYKSMKGAGTDEKTLTRVMVSRSEIDLLNIRREFIEKYDKSLHQAIEGDTSGDFMKALLALCGGED
B8: Apolipoprotein C-III (protein, UniProt P33622 21-99, looked up)
chain: EEVEGSLLLGSVQGYMEQASKTVQDALSSVQESDIAVVARGWMDNHFRFLKGYWSKFTDKFTGFWDSNPEDQPTPAIES
B9: Fibulin-1 (protein, UniProt Q08879 30-705, looked up)
chain: DISMEACCTDGNQMANQHRDCSLPYTSESKECRMVQEQCCHNQLEELHCATGINLASEPEGCASLHSYNSSLETIFIKRCCHCCMLGKASLARDQTCEPIVMISYQCGLVFRACCVKARENSDFVQGNGADLQDPAKIPDEEDQEDPYLNDRCRGGGPCKQQCRDTGDEVICSCFVGYQLQSDGVSCEDINECITGSHNCRLGESCINTVGSFRCQRDSSCGTGYELTEDNNCKDIDECETGIHNCPPDFICQNTLGSFRCRPKLQCKSGFIQDALGNCIDINECLSISAPCPVGQTCINTEGSYTCQKNVPNCGRGYHLNEEGTRCVDVDECSPPAEPCGKGHHCLNSPGSFRCECKAGFYFDGISRTCVDINECQRYPGRLCGHKCENTPGSFHCSCSAGFRLSVDGRSCEDVNECLNSPCSQECANVYGSYQCYCRRGYQLSDVDGVTCEDIDECALPTGGHICSYRCINIPGSFQCSCPSSGYRLAPNGRNCQDIDECVTGIHNCSINETCFNIQGSFRCLSFECPENYRRSADTFRQEKTDTVRCIKSCRPNDEACVRDPVHTVSHTVISLPTFREFTRPEEIIFLRAVTPLYPANQADIIFDITEGNLRDSFDIIKRYEDGMTVGVVRQVRPIVGPFYAVLKLEMNYVLGGVVSHRNVVNVHIFVSEYWF
B10: A disintegrin and metalloproteinase with thrombospondin motifs 1 (enzyme, UniProt P97857 254-968, looked up)
chain: FVSSPRYVETMLVADQSMADFHGSGLKHYLLTLFSVAARFYKHPSIRNSISLVVVKILVIYEEQKGPEVTSNAALTLRNFCSWQKQHNSPSDRDPEHYDTAILFTRQDLCGSHTCDTLGMADVGTVCDPSRSCSVIEDDGLQAAFTTAHELGHVFNMPHDDAKHCASLNGVSGDSHLMASMLSSLDHSQPWSPCSAYMVTSFLDNGHGECLMDKPQNPIKLPSDLPGTLYDANRQCQFTFGEESKHCPDAASTCTTLWCTGTSGGLLVCQTKHFPWADGTSCGEGKWCVSGKCVNKTDMKHFATPVHGSWGPWGPWGDCSRTCGGGVQYTMRECDNPVPKNGGKYCEGKRVRYRSCNIEDCPDNNGKTFREEQCEAHNEFSKASFGNEPTVEWTPKYAGVSPKDRCKLTCEAKGIGYFFVLQPKVVDGTPCSPDSTSVCVQGQCVKAGCDRIIDSKKKFDKCGVCGGNGSTCKKMSGIVTSTRPGYHDIVTIPAGATNIEVKHRNQRGSRNNGSFLAIRAADGTYILNGNFTLSTLEQDLTYKGTVLRYSGSSAALERIRSFSPLKEPLTIQVLMVGHALRPKIKFTYFMKKKTESFNAIPTFSEWVIEEWGECSKTCGSGWQRRVVQCRDINGHPASECAKEVKPASTRPCADLPCPHWQVGDWSPCSKTCGKGYKKRTLKCVSHDGGVLSNESCDPLKKPKHYIDFCTLTQCS
B11: Glypican-1 (protein, UniProt Q9QZF2 24-529, looked up)
chain: DPASKSRSCSEVRQIYGAKGFSLSDVPQAEISGEHLRICPQGYTCCTSEMEENLANHSRMELESALHDSSRALQATLATQLHGIDDHFQRLLNDSERTLQEAFPGAFGDLYTQNTRAFRDLYAELRLYYRGANLHLEETLAEFWARLLERLFKQLHPQLLPDDYLDCLGKQAEALRPFGDAPRELRLRATRAFVAARSFVQGLGVASDVVRKVAQVPLAPECSRAIMKLVYCAHCRGVPGARPCPDYCRNVLKGCLANQADLDAEWRNLLDSMVLITDKFWGPSGAESVIGGVHVWLAEAINALQDNKDTLTAKVIQACGNPKVNPHGSGPEEKRRRGKLALQEKPSTGTLEKLVSEAKAQLRDIQDFWISLPGTLCSEKMAMSPASDDRCWNGISKGRYLPEVMGDGLANQINNPEVEVDITKPDMTIRQQIMQLKIMTNRLRGAYGGNDVDFQDASDDGSGSGSGGGCPDDTCGRRVSKKSSSSRTPLTHALPGLSEQEGQKTS

Amino acid sequences for entries named in this document (tags omitted). Residues count along the entry.
UniProt Q80YX1, residues 23-2110: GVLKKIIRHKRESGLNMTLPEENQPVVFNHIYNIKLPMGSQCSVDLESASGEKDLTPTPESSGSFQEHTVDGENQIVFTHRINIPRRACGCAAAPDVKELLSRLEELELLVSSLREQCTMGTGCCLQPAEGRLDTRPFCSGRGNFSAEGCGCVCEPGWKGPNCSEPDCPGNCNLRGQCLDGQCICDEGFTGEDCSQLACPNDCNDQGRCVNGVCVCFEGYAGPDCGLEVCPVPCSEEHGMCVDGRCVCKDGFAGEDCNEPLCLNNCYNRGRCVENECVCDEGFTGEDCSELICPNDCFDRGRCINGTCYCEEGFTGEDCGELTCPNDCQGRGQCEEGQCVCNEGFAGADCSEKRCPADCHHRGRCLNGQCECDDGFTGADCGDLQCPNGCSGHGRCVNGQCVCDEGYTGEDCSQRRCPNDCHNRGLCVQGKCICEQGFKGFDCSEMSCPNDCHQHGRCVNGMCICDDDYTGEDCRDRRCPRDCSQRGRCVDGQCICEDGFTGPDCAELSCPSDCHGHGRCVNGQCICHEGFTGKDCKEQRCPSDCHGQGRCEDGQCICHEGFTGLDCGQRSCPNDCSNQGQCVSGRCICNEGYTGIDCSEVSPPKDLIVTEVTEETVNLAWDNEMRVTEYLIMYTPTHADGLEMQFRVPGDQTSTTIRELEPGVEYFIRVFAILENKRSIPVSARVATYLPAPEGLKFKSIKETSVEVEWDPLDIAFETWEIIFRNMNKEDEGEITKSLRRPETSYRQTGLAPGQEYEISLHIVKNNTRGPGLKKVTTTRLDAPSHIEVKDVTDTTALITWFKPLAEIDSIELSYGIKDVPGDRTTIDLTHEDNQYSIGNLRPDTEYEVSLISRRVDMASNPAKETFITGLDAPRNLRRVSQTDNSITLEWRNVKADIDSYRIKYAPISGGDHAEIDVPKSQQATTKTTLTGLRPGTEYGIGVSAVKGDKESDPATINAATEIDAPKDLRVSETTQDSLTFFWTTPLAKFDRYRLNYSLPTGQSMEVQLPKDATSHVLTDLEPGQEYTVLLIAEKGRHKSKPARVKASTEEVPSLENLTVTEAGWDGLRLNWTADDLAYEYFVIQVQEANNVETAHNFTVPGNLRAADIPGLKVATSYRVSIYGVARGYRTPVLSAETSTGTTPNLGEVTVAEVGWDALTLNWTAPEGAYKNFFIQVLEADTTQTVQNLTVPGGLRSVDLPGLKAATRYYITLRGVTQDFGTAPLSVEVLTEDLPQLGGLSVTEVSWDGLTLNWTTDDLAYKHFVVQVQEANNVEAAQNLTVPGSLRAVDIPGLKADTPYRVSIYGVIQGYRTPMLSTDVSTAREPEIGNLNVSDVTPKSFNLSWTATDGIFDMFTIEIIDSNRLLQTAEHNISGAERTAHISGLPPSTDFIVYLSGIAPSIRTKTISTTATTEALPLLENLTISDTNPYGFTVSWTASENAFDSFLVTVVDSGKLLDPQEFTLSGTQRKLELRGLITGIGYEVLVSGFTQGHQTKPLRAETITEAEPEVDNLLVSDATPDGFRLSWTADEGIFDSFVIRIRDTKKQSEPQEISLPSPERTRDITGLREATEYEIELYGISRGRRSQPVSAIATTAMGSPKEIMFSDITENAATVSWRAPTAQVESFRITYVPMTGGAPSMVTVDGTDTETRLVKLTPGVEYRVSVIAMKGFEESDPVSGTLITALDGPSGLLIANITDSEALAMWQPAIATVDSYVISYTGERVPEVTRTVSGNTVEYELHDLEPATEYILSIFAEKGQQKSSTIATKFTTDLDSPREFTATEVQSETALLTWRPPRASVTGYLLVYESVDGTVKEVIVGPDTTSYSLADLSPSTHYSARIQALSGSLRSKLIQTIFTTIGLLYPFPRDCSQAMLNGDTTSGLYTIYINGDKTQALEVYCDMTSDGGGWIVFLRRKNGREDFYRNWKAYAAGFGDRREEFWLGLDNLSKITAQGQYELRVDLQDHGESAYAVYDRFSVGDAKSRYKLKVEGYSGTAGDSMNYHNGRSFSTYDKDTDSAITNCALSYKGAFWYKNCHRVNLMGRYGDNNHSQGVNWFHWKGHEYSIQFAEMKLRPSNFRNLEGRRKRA

biological target: murine strep-tagged TNC (mTNC) (mouse) (UniProt Q80YX1); assay: co-purification with recombinant mTNC, 1 M NaCl eluate, mass spectrometry

binding, binds:
B1
B2
B3
B4
B5
B6
B7
B8
B9
B10
B11
